Measured values published in PMC8648109.
Construct, isoform or probe ends are uncertain for at least one entry. Where cells or extracts were used, other partners may take part. Negatives hold for the conditions tested. For some assays here: Where a protein sequence is shown, tags need not be part of it.

Chains of the proteins cited; added tags and fusions are not shown. Where a name states a change or a piece, a line headed by the entry shows the natural chain unless it says otherwise. A line that says so, or that is headed by a name, gives the form on record, which may keep a tag or linker.
UniProt Q9WTL8: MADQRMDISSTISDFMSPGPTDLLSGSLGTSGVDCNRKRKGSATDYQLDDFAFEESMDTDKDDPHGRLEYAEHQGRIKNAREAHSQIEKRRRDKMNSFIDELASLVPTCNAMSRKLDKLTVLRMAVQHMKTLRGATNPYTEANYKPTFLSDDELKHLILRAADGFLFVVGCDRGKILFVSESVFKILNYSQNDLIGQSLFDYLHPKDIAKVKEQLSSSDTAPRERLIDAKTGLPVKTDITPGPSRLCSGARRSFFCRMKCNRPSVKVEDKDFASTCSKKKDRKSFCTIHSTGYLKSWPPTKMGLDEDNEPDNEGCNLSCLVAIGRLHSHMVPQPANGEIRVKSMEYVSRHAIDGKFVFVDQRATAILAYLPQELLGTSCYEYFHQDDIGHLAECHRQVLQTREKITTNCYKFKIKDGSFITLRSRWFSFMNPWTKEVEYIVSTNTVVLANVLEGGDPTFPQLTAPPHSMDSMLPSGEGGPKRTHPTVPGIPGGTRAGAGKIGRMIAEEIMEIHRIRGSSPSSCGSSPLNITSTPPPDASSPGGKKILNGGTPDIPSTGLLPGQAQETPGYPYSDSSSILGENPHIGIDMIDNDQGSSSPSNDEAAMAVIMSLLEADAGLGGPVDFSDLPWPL
BMAL1 (endogenous, mouse fibroblasts) + CLOCK (endogenous, mouse fibroblasts), one chain, as listed by the source: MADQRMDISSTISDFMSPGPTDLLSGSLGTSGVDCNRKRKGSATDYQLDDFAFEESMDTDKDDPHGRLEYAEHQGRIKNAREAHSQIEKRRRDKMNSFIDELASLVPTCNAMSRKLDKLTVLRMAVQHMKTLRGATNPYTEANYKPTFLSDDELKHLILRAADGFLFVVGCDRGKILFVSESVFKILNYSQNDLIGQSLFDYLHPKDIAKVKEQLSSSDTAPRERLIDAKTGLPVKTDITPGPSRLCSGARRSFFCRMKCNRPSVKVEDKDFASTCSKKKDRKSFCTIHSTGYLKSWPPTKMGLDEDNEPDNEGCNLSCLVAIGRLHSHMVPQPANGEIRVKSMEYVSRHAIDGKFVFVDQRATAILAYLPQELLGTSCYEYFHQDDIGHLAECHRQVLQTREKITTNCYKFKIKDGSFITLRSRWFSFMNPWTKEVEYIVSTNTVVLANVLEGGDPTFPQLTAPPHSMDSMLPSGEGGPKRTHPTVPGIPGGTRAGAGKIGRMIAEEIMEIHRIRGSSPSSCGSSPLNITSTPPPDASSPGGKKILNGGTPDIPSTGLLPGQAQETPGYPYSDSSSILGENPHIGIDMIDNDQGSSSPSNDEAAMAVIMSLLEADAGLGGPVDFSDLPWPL

Experiments:
[1] = tested on: BMAL1 (endogenous, mouse fibroblasts) + CLOCK (endogenous, mouse fibroblasts); assay: competition with a labelled probe; details: 20 ug total cell extract, 32P-labeled duplex, room temperature 20 min, antibody 1 ug in 10 ul EMSA reaction buffer on ice 30 min for supershift, protein in an extract
[2] = biological target: BMAL1 (endogenous, mouse fibroblasts) (mouse) (UniProt Q9WTL8); assay: EMSA; details: Clock-deficient fibroblast extract; 20 ug total cell extract, 32P-labeled duplex, room temperature 20 min; antibody 1 ug in 10 ul EMSA reaction buffer on ice 30 min for supershift; protein in an extract; label: 32P (probe), unlabeled as competitor
[3] = biological target: T1, CLOCK (endogenous, mouse fibroblasts) (mouse) (UniProt O08785); assay: EMSA; details: Bmal1-deficient fibroblast extract; 20 ug total cell extract, 32P-labeled duplex, room temperature 20 min; antibody 1 ug in 10 ul EMSA reaction buffer on ice 30 min for supershift; protein in an extract; label: 32P (probe), unlabeled as competitor
T1 sequence (looked up, limits assumed): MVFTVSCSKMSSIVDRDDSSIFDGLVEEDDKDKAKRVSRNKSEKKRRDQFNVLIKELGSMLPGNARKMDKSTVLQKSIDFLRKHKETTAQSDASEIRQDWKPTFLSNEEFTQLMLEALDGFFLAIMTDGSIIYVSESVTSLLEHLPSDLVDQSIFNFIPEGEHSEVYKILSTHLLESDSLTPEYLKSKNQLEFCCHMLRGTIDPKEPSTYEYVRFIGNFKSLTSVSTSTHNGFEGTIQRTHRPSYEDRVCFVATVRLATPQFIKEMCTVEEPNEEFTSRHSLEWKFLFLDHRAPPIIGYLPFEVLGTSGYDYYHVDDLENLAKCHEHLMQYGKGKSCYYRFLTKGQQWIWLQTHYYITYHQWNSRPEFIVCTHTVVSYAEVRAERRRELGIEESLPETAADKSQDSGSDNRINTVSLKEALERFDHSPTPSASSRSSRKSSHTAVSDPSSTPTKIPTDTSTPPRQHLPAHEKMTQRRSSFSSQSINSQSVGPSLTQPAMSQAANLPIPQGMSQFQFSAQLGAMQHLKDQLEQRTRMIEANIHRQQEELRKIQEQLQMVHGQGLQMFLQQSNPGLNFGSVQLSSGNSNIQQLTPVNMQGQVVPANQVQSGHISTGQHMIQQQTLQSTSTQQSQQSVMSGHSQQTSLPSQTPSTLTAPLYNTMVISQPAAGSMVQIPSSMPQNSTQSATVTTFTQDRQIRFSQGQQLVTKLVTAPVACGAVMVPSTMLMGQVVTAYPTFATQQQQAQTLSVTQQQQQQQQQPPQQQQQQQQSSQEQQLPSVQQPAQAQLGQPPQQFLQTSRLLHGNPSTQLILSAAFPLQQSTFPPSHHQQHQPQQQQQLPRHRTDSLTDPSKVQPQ

Question: Does “CGCGCAAAGCCATGTGCTTCCCCCT (double strand) [WT1 E-box probe]” bind ([1]; 100-fold excess cold WT1, label: 32P (probe), unlabeled as competitor)?
Answer: binds

Question: Does “CGCGCAAAGCCATGTGCTTCCCCCT (double strand) [WT1 E-box probe]” bind [2]?
Answer: no binding

Question: Does “CGCGCAAAGCCATGTGCTTCCCCCT (double strand) [WT1 E-box probe]” bind [3]?
Answer: no binding

Question: Does “GGGACACGTGACCC (double strand) [WT2 E-box]” bind ([1]; 100-fold excess cold WT2)?
Answer: binds

Question: Does “GGGACAGCTGACCC (double strand) [E-box mutant]” bind ([1]; 100-fold excess cold mutant, label: unlabeled competitor)?
Answer: no binding
